Measurements reported in PubChem BioAssay AID743456 (Peter MacCallum Cancer Centre, 2014).
The whole screen tested 878 reagents; this is an unselected part. Over the whole deposit, 27 (3.1%) got an active call. 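27 mimics are marked active, unlike an earlier stated count of 24; the viability threshold is described inconsistently.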 Entries without a mark were called inactive. Not all columns of the deposit are shown. The record does not give: the amount of reagent.

Purpose: 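miRNA mimics altering how resistant colon cancer cells respond to vorinostat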 (primary screen)
Cell system: human HCT116-VR colon cancer cells, a vorinostat-resistant HCT116 line
Reagents: miRNA mimic
Timing: about 3 days from transfection to readout; drug present for the last 24 h
Conditions: vorinostat at 2.5 µM final for 24 h
Measurement: 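Per-well live-cell protease fluorescence and caspase luminescence under 2.5 µM vorinostat for 24 h, scored as robust z-scores and against mock transfection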
Reading the numbers: viability robust z-score: higher = more viable cells; caspase robust z-score: higher = more caspase activity, more apoptosis
Hit rule: 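Active when viability drops or caspase activity climbs beyond robust z thresholds, with wells of poor cell health excluded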

hsa-miR-342-5p showed viability robust z-score -3.13 (active); caspase robust z-score 2.64; viability hit class reduced viability; caspase hit class no change.
hsa-miR-433 showed viability robust z-score -0.42; caspase robust z-score 0.66; viability hit class no change; caspase hit class no change.
For hsa-miR-587, the entry reads viability robust z-score 1.63; caspase robust z-score -0.56; viability hit class no change; caspase hit class no change.
For hsa-miR-801, the values are viability robust z-score -0.59; caspase robust z-score -0.36; viability hit class no change; caspase hit class no change.
With hsa-miR-642, the values are viability robust z-score 0.2; caspase robust z-score -0.46; viability hit class no change; caspase hit class no change.
For hsa-miR-548e, the entry reads viability robust z-score 1.48; caspase robust z-score -0.1; viability hit class no change; caspase hit class no change.
With hsa-miR-195* the deposit lists viability robust z-score 1.19; caspase robust z-score -0.44; viability hit class no change; caspase hit class no change.
With hsa-miR-1973 the deposit lists viability robust z-score 0.1; caspase robust z-score -0.56; viability hit class no change; caspase hit class no change.
For hsa-miR-1278 the deposit lists viability robust z-score -0.96; caspase robust z-score 4.14; viability hit class no change; caspase hit class no change.
hsa-miR-1301 gave viability robust z-score 1.18; caspase robust z-score 1.6; viability hit class no change; caspase hit class no change.
hsa-miR-601 scored viability robust z-score -0.4; caspase robust z-score 2.32; viability hit class no change; caspase hit class no change.
For hsa-miR-517c the deposit lists viability robust z-score -0.43; caspase robust z-score 1.21; viability hit class no change; caspase hit class no change.
hsa-miR-453 showed viability robust z-score -2.33 (active); caspase robust z-score 6.8; viability hit class no change; caspase hit class caspase activation.
hsa-miR-224* showed viability robust z-score 0.26; caspase robust z-score 1.76; viability hit class no change; caspase hit class no change.
hsa-miR-888 scored viability robust z-score 0.52; caspase robust z-score -0.76; viability hit class no change; caspase hit class no change.
hsa-miR-554 scored viability robust z-score 0.13; caspase robust z-score 0.16; viability hit class no change; caspase hit class no change.
hsa-miR-409-3p showed viability robust z-score -1.19; caspase robust z-score -0.35; viability hit class no change; caspase hit class no change.
For hsa-miR-130b, the values are viability robust z-score 1.13; caspase robust z-score -0.49; viability hit class no change; caspase hit class no change.

Reprinted from the listing (3 entries):
hsa-miR-801 → viability robust z-score = -0.59; caspase robust z-score = -0.36; viability hit class = no change; caspase hit class = no change
hsa-miR-642 → viability robust z-score = 0.2; caspase robust z-score = -0.46; viability hit class = no change; caspase hit class = no change
hsa-miR-548e → viability robust z-score = 1.48; caspase robust z-score = -0.1; viability hit class = no change; caspase hit class = no change
